The record followed here is publication PMC5443536.

Results are given in words; binding and its absence hold for the method and conditions named. A result given as binding can be weak or reduced; the word gives no strength.

This experiment addresses AddA (Caulobacter crescentus). Put plainly: two-hybrid; bacterial two-hybrid: fusions to the T18 or T25 fragments of adenylate cyclase (pUT or pKT vectors), co-transformed into E. coli BTH101; spotted on MacConkey agar with maltose and IPTG, 30 °C, 2-3 days; red colonies show interaction.

Regarding AddB (from UniProt A0A0H3CC48), the binding entry was “binds”.
